# Laboratory results as given in publication doi:10.1101/2024.01.31.574410.
# Amino acid sequences for entries named in this document (tags omitted).
# UniProt P46379: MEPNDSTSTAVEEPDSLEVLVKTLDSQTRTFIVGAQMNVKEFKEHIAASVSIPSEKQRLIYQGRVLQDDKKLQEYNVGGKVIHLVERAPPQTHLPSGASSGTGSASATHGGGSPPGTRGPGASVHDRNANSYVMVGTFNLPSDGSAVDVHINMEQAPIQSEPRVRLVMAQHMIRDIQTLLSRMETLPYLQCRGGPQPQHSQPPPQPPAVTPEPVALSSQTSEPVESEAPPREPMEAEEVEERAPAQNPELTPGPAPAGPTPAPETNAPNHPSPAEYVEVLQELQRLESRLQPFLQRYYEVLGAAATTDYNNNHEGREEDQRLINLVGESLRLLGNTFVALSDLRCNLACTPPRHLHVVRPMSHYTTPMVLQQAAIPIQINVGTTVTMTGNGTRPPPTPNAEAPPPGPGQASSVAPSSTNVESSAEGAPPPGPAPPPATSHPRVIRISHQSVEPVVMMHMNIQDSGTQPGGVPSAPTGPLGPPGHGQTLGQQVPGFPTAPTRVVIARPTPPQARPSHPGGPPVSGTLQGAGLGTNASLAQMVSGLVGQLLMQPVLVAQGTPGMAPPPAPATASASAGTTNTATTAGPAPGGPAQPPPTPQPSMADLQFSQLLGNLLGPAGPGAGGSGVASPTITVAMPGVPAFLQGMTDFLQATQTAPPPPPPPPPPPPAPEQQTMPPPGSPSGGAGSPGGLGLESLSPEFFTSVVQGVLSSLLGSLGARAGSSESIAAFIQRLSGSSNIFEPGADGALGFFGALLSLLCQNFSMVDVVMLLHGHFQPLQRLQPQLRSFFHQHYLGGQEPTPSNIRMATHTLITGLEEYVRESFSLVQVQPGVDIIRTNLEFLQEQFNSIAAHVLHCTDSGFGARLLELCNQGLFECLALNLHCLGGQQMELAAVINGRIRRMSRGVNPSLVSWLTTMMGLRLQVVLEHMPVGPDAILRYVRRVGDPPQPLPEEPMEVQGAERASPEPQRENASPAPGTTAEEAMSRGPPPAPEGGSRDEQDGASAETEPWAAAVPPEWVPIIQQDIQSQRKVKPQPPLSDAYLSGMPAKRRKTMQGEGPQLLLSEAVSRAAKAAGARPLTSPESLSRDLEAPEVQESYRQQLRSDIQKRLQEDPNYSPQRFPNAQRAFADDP
# UniProt Q9UPT5: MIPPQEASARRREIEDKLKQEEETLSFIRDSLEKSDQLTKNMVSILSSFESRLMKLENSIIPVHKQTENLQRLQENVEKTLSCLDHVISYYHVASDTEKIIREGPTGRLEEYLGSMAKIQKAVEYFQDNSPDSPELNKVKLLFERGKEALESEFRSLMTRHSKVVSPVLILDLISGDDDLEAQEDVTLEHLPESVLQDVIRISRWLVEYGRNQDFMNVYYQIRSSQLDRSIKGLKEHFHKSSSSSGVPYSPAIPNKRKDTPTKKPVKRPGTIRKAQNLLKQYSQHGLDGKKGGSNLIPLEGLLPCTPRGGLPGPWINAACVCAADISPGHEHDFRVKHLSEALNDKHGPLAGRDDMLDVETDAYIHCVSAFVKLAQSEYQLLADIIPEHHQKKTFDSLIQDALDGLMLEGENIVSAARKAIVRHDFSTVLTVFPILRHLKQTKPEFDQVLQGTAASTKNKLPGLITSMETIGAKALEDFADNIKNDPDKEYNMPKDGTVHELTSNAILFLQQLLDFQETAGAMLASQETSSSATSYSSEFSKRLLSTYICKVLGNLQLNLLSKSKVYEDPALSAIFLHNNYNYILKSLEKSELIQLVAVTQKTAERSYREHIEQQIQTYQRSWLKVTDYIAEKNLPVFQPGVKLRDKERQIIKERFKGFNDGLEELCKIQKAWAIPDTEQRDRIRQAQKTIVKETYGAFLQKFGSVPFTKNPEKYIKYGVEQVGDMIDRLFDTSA
# UniProt O94822: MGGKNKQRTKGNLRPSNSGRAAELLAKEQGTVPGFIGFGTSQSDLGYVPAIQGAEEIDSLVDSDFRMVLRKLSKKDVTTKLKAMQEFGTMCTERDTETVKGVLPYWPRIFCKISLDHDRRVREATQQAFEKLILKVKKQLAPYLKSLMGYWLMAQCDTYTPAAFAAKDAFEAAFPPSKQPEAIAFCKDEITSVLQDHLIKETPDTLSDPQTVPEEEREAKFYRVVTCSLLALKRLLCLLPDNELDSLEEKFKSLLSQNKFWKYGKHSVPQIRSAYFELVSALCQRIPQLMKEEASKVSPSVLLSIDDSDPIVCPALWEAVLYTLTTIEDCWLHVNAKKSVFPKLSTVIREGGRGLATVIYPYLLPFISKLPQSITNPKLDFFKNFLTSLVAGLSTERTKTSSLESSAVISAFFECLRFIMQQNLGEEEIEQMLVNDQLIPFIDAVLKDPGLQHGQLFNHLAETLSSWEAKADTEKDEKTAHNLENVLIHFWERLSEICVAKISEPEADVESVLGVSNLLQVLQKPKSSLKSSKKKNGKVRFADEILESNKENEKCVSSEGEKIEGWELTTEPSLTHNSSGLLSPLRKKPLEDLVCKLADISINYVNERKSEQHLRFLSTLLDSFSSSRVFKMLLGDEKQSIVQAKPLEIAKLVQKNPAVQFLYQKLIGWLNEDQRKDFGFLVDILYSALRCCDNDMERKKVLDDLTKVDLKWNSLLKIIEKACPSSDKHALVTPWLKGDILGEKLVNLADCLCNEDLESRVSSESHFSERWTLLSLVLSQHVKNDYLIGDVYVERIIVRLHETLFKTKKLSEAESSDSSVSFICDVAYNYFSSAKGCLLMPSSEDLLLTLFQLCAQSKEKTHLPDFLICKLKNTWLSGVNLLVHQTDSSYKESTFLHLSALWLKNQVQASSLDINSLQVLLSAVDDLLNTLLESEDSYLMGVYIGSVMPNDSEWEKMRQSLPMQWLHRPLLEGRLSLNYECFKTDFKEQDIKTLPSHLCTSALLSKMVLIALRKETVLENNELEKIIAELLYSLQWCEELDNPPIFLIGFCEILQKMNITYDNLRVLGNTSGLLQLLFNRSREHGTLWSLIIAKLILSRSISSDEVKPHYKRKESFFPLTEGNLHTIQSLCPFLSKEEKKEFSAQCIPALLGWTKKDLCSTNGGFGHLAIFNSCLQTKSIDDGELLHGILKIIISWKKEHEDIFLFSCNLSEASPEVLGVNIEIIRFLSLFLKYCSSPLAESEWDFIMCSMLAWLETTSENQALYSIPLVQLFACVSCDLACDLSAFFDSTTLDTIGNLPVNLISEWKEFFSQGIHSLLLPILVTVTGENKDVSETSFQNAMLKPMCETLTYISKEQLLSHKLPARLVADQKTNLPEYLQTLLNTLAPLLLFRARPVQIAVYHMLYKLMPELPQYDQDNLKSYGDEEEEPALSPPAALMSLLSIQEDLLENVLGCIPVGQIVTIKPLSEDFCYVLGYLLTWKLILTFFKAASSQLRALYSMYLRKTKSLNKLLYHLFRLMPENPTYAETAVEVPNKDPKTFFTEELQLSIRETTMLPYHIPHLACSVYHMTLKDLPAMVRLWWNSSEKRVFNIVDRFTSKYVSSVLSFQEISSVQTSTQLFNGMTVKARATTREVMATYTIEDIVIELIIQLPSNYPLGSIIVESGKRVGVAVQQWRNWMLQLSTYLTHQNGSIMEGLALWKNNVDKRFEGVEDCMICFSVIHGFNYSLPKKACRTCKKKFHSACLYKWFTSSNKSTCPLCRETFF
# UniProt P62258: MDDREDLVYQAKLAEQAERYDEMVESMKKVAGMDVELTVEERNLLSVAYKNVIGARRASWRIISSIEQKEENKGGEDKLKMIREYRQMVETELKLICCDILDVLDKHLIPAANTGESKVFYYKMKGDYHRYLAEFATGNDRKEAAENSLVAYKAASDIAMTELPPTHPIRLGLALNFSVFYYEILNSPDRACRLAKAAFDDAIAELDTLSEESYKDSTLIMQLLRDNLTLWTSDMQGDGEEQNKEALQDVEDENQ
# UniProt Q14318: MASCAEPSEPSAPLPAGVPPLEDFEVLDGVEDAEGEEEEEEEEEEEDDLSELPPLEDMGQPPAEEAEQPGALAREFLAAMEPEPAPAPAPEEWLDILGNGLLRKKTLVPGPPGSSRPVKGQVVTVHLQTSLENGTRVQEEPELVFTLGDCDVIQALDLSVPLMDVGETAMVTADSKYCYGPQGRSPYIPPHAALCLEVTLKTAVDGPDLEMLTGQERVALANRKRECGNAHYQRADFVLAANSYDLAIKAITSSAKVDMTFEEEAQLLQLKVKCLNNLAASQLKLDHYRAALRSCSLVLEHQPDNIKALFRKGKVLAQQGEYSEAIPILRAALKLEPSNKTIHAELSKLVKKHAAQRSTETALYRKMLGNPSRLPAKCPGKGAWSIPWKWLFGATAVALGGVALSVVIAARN
# Read-outs that look alike come from different tables or passages of the source. These are yes or no findings as the source states them, for the method shown. In cells and extracts the contact can be indirect. Here binding means that the protein was enriched with, or labelled near, the bait; the list need not be complete. For some of these results: Tags and fused reporters may be left off the sequences shown.
# Experiments:
# Experiment in all cases: affinity purification with mass spectrometry
# KV11.1-G601S (human) [1] = target: KV11.1-G601S (human) (UniProt Q12809)
# [2] = target: wild-type (WT) KV11.1 (human) (UniProt Q12809)
# KV11.1-G601S (human) [3] = target: KV11.1-G601S (human) (UniProt Q12809); remark: listed apart in the source
# [4] = target: wild-type (WT) KV11.1 (human) (UniProt Q12809); remark: listed apart in the source
Molecule,binding (KV11.1-G601S (human) [1]),binding [2],binding (KV11.1-G601S (human) [3]),binding [4]
BCL2-associated athanogene 6 (from UniProt P46379 1-1132),binds,,,
EXOC7 (from UniProt Q9UPT5 1-735),binds,,,
E3 ubiquitin ligase listerin (from UniProt O94822 1-1766),binds,,,
14-3-3ε (from UniProt P62258 1-255),binds,binds,,
FK506 binding protein 8 (from UniProt Q14318 1-412),binds,,,
"dolichyl-diphosphooligosaccharide-protein glycosyltransferase subunit (protein, UniProt P39656 43-456) SGPRTLVLLDNLNVRETHSLFFRSLKDRGFELTFKTADDPSLSLIKYGEFLYDNLIIFSPSVEDFGGNINVETISAFIDGGGSVLVAASSDIGDPLRELGSECGIEFDEEKTAVIDHHNYDISDLGQHTLIVADTENLLKAPTIVGKSSLNPILFRGVGMVADPDNPLVLDILTGSSTSYSFFPDKPITQYPHAVGKNTLLIAGLQARNNARVIFSGSLDFFSDSFFNSAVQKAAPGSQRYSQTGNYELAVALSRWVFKEEGVLRVGPVSHHRVGETAPPNAYTVTDLVEYSIVIQQLSNGKWVPFDGDDIQLEFVRIDPFVRTFLKKKGGKYSVQFKLPDVYGVFQFKVDYNRLGYTHLYSSTQVSVRPLQHTQYERFIPSAYPYYASAFSMMLGLFIFSIVFLHMKEKEKSD",,,binds,binds
"glucosidase II alpha subunit (protein, UniProt Q14697 29-944) ITLAVDRSNFKTCEESSFCKRQRSIRPGLSPYRALLDSLQLGPDSLTVHLIHEVTKVLLVLELQGLQKNMTRFRIDELEPRRPRYRVPDVLVADPPIARLSVSGRDENSVELTMAEGPYKIILTARPFRLDLLEDRSLLLSVNARGLLEFEHQRAPRVSQGSKDPAEGDGAQPEETPRDGDKPEETQGKAEKDEPGAWEETFKTHSDSKPYGPMSVGLDFSLPGMEHVYGIPEHADNLRLKVTEGGEPYRLYNLDVFQYELYNPMALYGSVPVLLAHNPHRDLGIFWLNAAETWVDISSNTAGKTLFGKMMDYLQGSGETPQTDVRWMSETGIIDVFLLLGPSISDVFRQYASLTGTQALPPLFSLGYHQSRWNYRDEADVLEVDQGFDDHNLPCDVIWLDIEHADGKRYFTWDPSRFPQPRTMLERLASKRRKLVAIVDPHIKVDSGYRVHEELRNLGLYVKTRDGSDYEGWCWPGSAGYPDFTNPTMRAWWANMFSYDNYEGSAPNLFVWNDMNEPSVFNGPEVTMLKDAQHYGGWEHRDVHNIYGLYVHMATADGLRQRSGGMERPFVLARAFFAGSQRFGAVWTGDNTAEWDHLKISIPMCLSLGLVGLSFCGADVGGFFKNPEPELLVRWYQMGAYQPFFRAHAHLDTGRREPWLLPSQHNDIIRDALGQRYSLLPFWYTLLYQAHREGIPVMRPLWVQYPQDVTTFNIDDQYLLGDALLVHPVSDSGAHGVQVYLPGQGEVWYDIQSYQKHHGPQTLYLPVTLSSIPVFQRGGTIVPRWMRVRRSSECMKDDPITLFVALSPQGTAQGELFLDDGHTFNYQTRQEFLLRRFSFSGNTLVSSSADPEGHFETPIWIERVVIIGAGKPAAVVLQTKGSPESRLSFQHDPETSVLVLRKPGINVASDWSIHLR",,,binds,binds
